PubChem BioAssay AID1259254 – NCATS | 2017
Aim: 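Finding genes that stop cells copying their DNA twice in one cycle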 (primary screen). Cells: human HCT116 colorectal cancer cells. Knock-down reagent: single siRNA against human genes. Duration: 3 days. Measured: 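Nuclei stained with Hoechst and imaged; cell-cycle phase assigned by DNA content; G2 share scaled per plate, non-targeting siRNA 0%, GMNN siRNA 100%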. Scale: G2 robust z-score: higher = more G2 cells, more excess DNA replication. Rule for the call: 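An siRNA counts as active if its G2 robust z-score lies at least 5 MADs above the screen median; here such calls match roughly 38% of GMNN control or more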.
This is an unselected part of about 59,000 deposited reagents. In the full data, about 1,550 (2.6%) were called active. 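G2 share is only a proxy for re-replication; each gene was hit by three separate siRNAs, and active genes were retested.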 Unmarked entries are inactive. Further read-outs or replicates are left out here. No sequences are given here. The record does not give: the amount of reagent.

G2 robust z-score, by gene and reagent
KDM4A: SID160722790 2.1; SID160722791 2.14; SID160722792 6.1 (active)
GYS2: SID160774766 -0.735; SID160774767 2.58; SID160774768 -0.537
GRIN2A: SID160774486 1.17; SID160774494 -1.07; SID160774504 -0.496
TEDC1: SID160724988 -1.01; SID160762996 1.94; SID160762997 0.464
RANBP2: SID160715640 7.39 (active); SID160715641 3.36; SID160715642 0.479
PEX14: SID160714128 -1.25; SID160714129 -1.24; SID160731408 1.45
CNPY4: SID160761940 -0.363; SID160761941 -0.0729; SID160761942 5.35 (active)
C8G: SID160723682 3.98; SID160723684 -0.903; SID160723685 -0.923
PIP4K2B: SID160719955 1.19; SID160719956 -1.05; SID160732003 -1.16
OXTR: SID160778480 2.1; SID160778481 -0.425; SID160778482 0.167
INPP5J: SID160730963 0.955; SID160738412 5.84 (active); SID160738413 -0.499
GATA2: SID160769479 1.64; SID160769487 -0.172; SID160769492 1.09
PEX39: SID160725424 -0.233; SID160733410 -0.514; SID160767949 -0.572
ZFAND5: SID160719290 0.206; SID160719291 0.655; SID160719292 1.69
L1CAM-AS1: SID160725665 -0.452; SID160768978 1.15; SID160768980 0.387
CD1E: SID160738146 2.39; SID160738156 0.994; SID160738167 -0.354
SYVN1: SID160752267 3.8; SID160752269 1.49; SID160752270 -0.325
RPP21: SID160724551 1.45; SID160749728 0.928; SID160749731 0.319
CALCB: SID160731931 -0.676; SID160735743 3.35; SID160735754 -1.12
PITPNA: SID160714369 0.161; SID160714370 -0.563; SID160714371 -0.868
CFAP53: SID160761503 -1.08; SID160761504 -1.06; SID160761505 0.358
UBE2L6: SID160721803 -1.16; SID160721805 -0.261; SID160721806 0.778
OXSM: SID160742696 -0.383; SID160742697 -0.639; SID160742698 1.48
IRGQ: SID160756446 -0.385; SID160756447 8.18 (active); SID160756448 0.266
DHRS11: SID160748707 1.33; SID160748708 1.54; SID160748709 -0.556
MCEMP1: SID160760729 -0.904; SID160760730 0.528; SID160760731 -0.0537
VTI1A: SID160732513 -0.429; SID160758008 -0.752; SID160758009 -0.00192
RHBDL3: SID160730674 -0.48; SID160759929 4.08; SID160759930 1.06
ITIH4: SID160776035 -0.605; SID160776036 -0.205; SID160776037 0.104

Hits, of those listed so far:
G2 robust z-score, by gene and reagent
KDM4A: SID160722792 6.1 (active)
RANBP2: SID160715640 7.39 (active)
CNPY4: SID160761942 5.35 (active)
INPP5J: SID160738412 5.84 (active)
IRGQ: SID160756447 8.18 (active)
